Experimental data published in PubChem BioAssay AID248 (DTP/NCI, 2004).
The list does not hold the whole screen: it gathers tests that were run many times, whatever their T/C, doses with no T/C, and many T/C values between a quarter and a half above the control. Other doses and runs of a compound stand elsewhere. T/C: endpoint of the treated group in % of that of the vehicle group. Some doses have a count of surviving animals in place of a T/C: the source holds a T/C of zero for them, seemingly a mark for toxic or unscored doses. Some doses without a T/C left all or most animals alive at the check, yet need not have been tolerated: the source hardly ever lists a survival T/C far under the control, and the zero likely stands for such cases as well. Survivors were counted at the toxicity check, usually on the fifth day, unless a day is given; later deaths do not show. Schedule codes are those of the source, taken here to give the interval after Q, in days (D) or hours (H), and the number of doses after X. Some entries were tested several times; the results are listed from low to high. For survival time, this PubChem deposit counts one and a half times the control or more as active, and values a quarter to a half above the control carry no call in these data; other NCI protocols may use other cut-offs. Counts like (3×) stand for listed records that agree. Some T/C values are followed by the survivors on the day toxicity was checked, most often the fifth; where none is given, no animal had died by that day.

System: L1210 leukemia ip in BDF1 mice, survival T/C
Assay: NCI In Vivo Anticancer Drug Screen. Data for tumor model L1210 Leukemia (intraperitoneal) in B6D2F1 (BDF1) mice
Conditions: T/C endpoint: mean survival time, higher T/C = longer survival
[1] = dose: 0.4 mg/kg/injection, schedule: Q01DX009 (ip), vehicle: other

In the case of `N=[N+]=CC(=O)CCC(NC(=O)C(CCC(=O)C=[N+]=N)NC(=O)CCC(N)C(=O)O)C(=O)O` (centres undefined), the T/C (dose: 0.03 mg/kg/injection, schedule: Q01DX009 (ip), vehicle: water) is reported as 127 % of control [5 of 6 alive], the T/C (dose: 0.04 mg/kg/injection, schedule: Q01DX009 (ip), vehicle: water) is reported as 131 % of control and the T/C (dose: 0.05 mg/kg/injection, schedule: Q01DX009 (sc), vehicle: water) is reported as 131 % of control. For the same molecule, the T/C (dose: 0.06 mg/kg/injection, schedule: Q01DX009 (ip), vehicle: water) was 140 % of control, the T/C (dose: 0.07 mg/kg/injection, schedule: Q01DX009 (ip), vehicle: other) was 126 % of control and the T/C (dose: 0.08 mg/kg/injection, schedule: Q01DX009 (ip), vehicle: water) was 129 and 146 % of control. The T/C (dose: 0.09 mg/kg/injection, schedule: Q01DX009 (ip), vehicle: water) was 125 % of control, the T/C (dose: 0.1 mg/kg/injection, schedule: Q01DX009 (ip), vehicle: other, evaluated on day 35) was 138 % of control and the T/C (dose: 0.1 mg/kg/injection, schedule: Q01DX009 (ip), vehicle: other, run until all animals had died) was 126 % of control [5 of 6 alive]. The T/C (dose: 0.1 mg/kg/injection, schedule: Q01DX009 (ip), vehicle: water) was 137 % of control, the T/C (dose: 0.1 mg/kg/injection, schedule: Q01DX009 (sc), vehicle: water) was 149 % of control and the T/C (dose: 0.1 mg/kg/injection, schedule: Q01DX017 (ip), vehicle: saline) was 130 % of control. For the same molecule, the T/C (dose: 0.15 mg/kg/injection, schedule: Q01DX009 (sc), vehicle: water) was 132 % of control, the T/C (dose: 0.16 mg/kg/injection, schedule: Q02DX008 (ip), vehicle: water) was 125 % of control and the survivor count (dose: 0.2 mg/kg/injection, schedule: Q01DX009 (ip), vehicle: other) was 3 of 6. The T/C (dose: 0.2 mg/kg/injection, schedule: Q01DX015 (ip), vehicle: other) was 135 % of control, the T/C (dose: 0.2 mg/kg/injection, schedule: Q01DX015 (ip), vehicle: water) was 125 and 127 % of control and the T/C (dose: 0.2 mg/kg/injection, schedule: Q01DX017 (ip), vehicle: saline) was 134 % of control. For the same molecule, the T/C (dose: 0.3 mg/kg/injection, schedule: Q01DX005 (iv), vehicle: other) was 144 % of control, the T/C (dose: 0.31 mg/kg/injection, schedule: Q02DX008 (ip), vehicle: water) was 130 % of control and the T/C (dose: 0.31 mg/kg/injection, schedule: Q02DX008 (oral), vehicle: water) was 127 % of control. The T/C [1] was 134 % of control, the survivor count [1] was 5 of 6 and the T/C (dose: 0.4 mg/kg/injection, schedule: Q02DX009 (ip), vehicle: saline) was 134 % of control. For the same molecule, the T/C (dose: 0.6 mg/kg/injection, schedule: Q01DX005 (iv), vehicle: other) was 144 % of control, the T/C (dose: 0.6 mg/kg/injection, schedule: Q01DX015 (ip), vehicle: other) was 137 % of control and the T/C (dose: 0.62 mg/kg/injection, schedule: Q02DX008 (ip), vehicle: other) was 145 % of control. For the same molecule, the T/C (dose: 0.62 mg/kg/injection, schedule: Q02DX008 (ip), vehicle: water) was 148 % of control, the T/C (dose: 0.62 mg/kg/injection, schedule: Q02DX008 (oral), vehicle: water) was 127 % of control and the T/C (dose: 0.78 mg/kg/injection, schedule: Q03HX008 (ip), vehicle: water) was 129 % of control. For the same molecule, the survivor count (dose: 0.8 mg/kg/injection, schedule: Q01DX009 (ip), vehicle: other) was 5 of 6, the survivor count (dose: 0.8 mg/kg/injection, schedule: Q01DX015 (ip), vehicle: other) was 6 of 6 and the survivor count (dose: 1.0 mg/kg/injection, schedule: Q01DX009 (ip), vehicle: other) was 6 of 6. For the same molecule, the T/C (dose: 1.2 mg/kg/injection, schedule: Q01DX005 (iv), vehicle: other) was 128 % of control, the T/C (dose: 1.25 mg/kg/injection, schedule: Q04DX003 (ip), vehicle: water) was 125 % of control and the T/C (dose: 1.56 mg/kg/injection, schedule: Q03HX008 (ip), vehicle: water) was 129 % of control. The survivor count (dose: 1.6 mg/kg/injection, schedule: Q01DX009 (ip), vehicle: other) was 6 of 6, the survivor count (dose: 1.8 mg/kg/injection, schedule: Q01DX009 (ip), vehicle: water) was 5 of 6 and the survivor count (dose: 2.0 mg/kg/injection, schedule: Q01DX009 (ip), vehicle: water) was 6 of 6. For the same molecule, the T/C (dose: 2.0 mg/kg/injection, schedule: Q02DX005 (ip), vehicle: other) was 147 % of control [4 of 6 alive], the T/C (dose: 2.5 mg/kg/injection, schedule: Q01DX005 (iv), vehicle: other) was 140 % of control and the T/C (dose: 2.5 mg/kg/injection, schedule: Q02DX008 (ip), vehicle: other) was 145 % of control. For the same molecule, the T/C (dose: 2.5 mg/kg/injection, schedule: Q04DX003 (ip), vehicle: other) was 130 % of control, the T/C (dose: 2.5 mg/kg/injection, schedule: Q04DX003 (ip), vehicle: water) was 136 % of control and the T/C (dose: 3.13 mg/kg/injection, schedule: Q03HX008 (ip), vehicle: water) was 141 % of control. The survivor count (dose: 5.0 mg/kg/injection, schedule: Q01DX005 (iv), vehicle: other) was 5 of 6, the survivor count (dose: 5.0 mg/kg/injection, schedule: Q01DX009 (oral), vehicle: water) was 5 of 6 and the T/C (dose: 5.0 mg/kg/injection, schedule: Q04DX003 (ip), vehicle: other) was 146 % of control. For the same molecule, the T/C (dose: 5.0 mg/kg/injection, schedule: Q04DX003 (ip), vehicle: water) was 142 % of control, the T/C (dose: 6.25 mg/kg/injection, schedule: Q03HX008 (ip), vehicle: water) was 125 % of control and the survivor count (dose: 10.0 mg/kg/injection, schedule: Q01DX009 (oral), vehicle: water) was 1 of 6. For the same molecule, the T/C (dose: 10.0 mg/kg/injection, schedule: Q07DX002 (ip), vehicle: water) was 148 % of control [5 of 6 alive], the T/C (dose: 12.5 mg/kg/injection, schedule: Q01DX001 (ip), vehicle: saline) was 129 % of control and the T/C (dose: 15.0 mg/kg/injection, schedule: Q02DX008 (ip), vehicle: other) was 137 % of control. The survivor count (dose: 20.0 mg/kg/injection, schedule: Q02DX004 (ip), vehicle: water) was 6 of 6, the T/C (dose: 25.0 mg/kg/injection, schedule: Q01DX001 (ip), vehicle: other) was 126 % of control [5 of 6 alive] and the T/C (dose: 25.0 mg/kg/injection, schedule: Q01DX001 (ip), vehicle: saline, evaluated on day 30) was 132 % of control. For the same molecule, the T/C (dose: 25.0 mg/kg/injection, schedule: Q01DX001 (ip), vehicle: saline, run until all animals had died) was 133 and 140 % of control, the T/C (dose: 25.0 mg/kg/injection, schedule: Q01DX001 (ip), vehicle: water) was 126 % of control (2×) and the survivor count (dose: 25.0 mg/kg/injection, schedule: Q03HX024 (ip), vehicle: water) was 5 of 10. For the same molecule, the survivor count (dose: 40.0 mg/kg/injection, schedule: Q02DX004 (ip), vehicle: water) was 5 of 6, the T/C (dose: 40.0 mg/kg/injection, schedule: Q04DX003 (ip), vehicle: other) was 130 % of control and the T/C (dose: 50.0 mg/kg/injection, schedule: Q01DX001 (ip), vehicle: clinical formulation) was 137 % of control. The T/C (dose: 50.0 mg/kg/injection, schedule: Q01DX001 (ip), vehicle: other, evaluated on day 35) was 138 % of control, the T/C (dose: 50.0 mg/kg/injection, schedule: Q01DX001 (ip), vehicle: other, run until all animals had died) was 133 and 147 % of control and the T/C (dose: 50.0 mg/kg/injection, schedule: Q01DX001 (ip), vehicle: saline) was 137 and 138 % of control. The T/C (dose: 50.0 mg/kg/injection, schedule: Q01DX001 (oral), vehicle: other) was 134 % of control, the T/C (dose: 50.0 mg/kg/injection, schedule: Q01DX001 (sc), vehicle: other) was 134 % of control and the survivor count (dose: 50.0 mg/kg/injection, schedule: Q01DX009 (oral), vehicle: water) was 0 of 6. For the same molecule, the survivor count (dose: 50.0 mg/kg/injection, schedule: Q03HX024 (ip), vehicle: water) was 6 of 10, the survivor count (dose: 60.0 mg/kg/injection, schedule: Q02DX004 (ip), vehicle: water) was 5 of 6 and the survivor count (dose: 60.0 mg/kg/injection, schedule: Q04DX003 (ip), vehicle: other) was 3 of 6. The survivor count (dose: 80.0 mg/kg/injection, schedule: Q02DX004 (ip), vehicle: water) was 5 of 6, the T/C (dose: 100.0 mg/kg/injection, schedule: Q01DX001 (ip), vehicle: other, evaluated on day 35) was 136 % of control and the T/C (dose: 100.0 mg/kg/injection, schedule: Q01DX001 (ip), vehicle: other, run until all animals had died) was 128 and 136 % of control. For the same molecule, the T/C (dose: 100.0 mg/kg/injection, schedule: Q01DX001 (ip), vehicle: saline, evaluated on day 30) was 148 % of control, the T/C (dose: 100.0 mg/kg/injection, schedule: Q01DX001 (ip), vehicle: saline, run until all animals had died) was 147 % of control (2×) and the T/C (dose: 100.0 mg/kg/injection, schedule: Q01DX001 (ip), vehicle: water) was 134 and 140 % of control. The T/C (dose: 100.0 mg/kg/injection, schedule: Q01DX001 (oral), vehicle: other) was 142 % of control, the T/C (dose: 100.0 mg/kg/injection, schedule: Q01DX001 (sc), vehicle: other) was 142 % of control and the survivor count (dose: 100.0 mg/kg/injection, schedule: Q01DX009 (oral), vehicle: water) was 0 of 6. The T/C (dose: 150.0 mg/kg/injection, schedule: Q01DX001 (ip), vehicle: water) was 134 and 148 % of control, the survivor count (dose: 200.0 mg/kg/injection, schedule: Q01DX001 (ip), vehicle: clinical formulation) was 3 of 4 and the T/C (dose: 200.0 mg/kg/injection, schedule: Q01DX001 (ip), vehicle: other, evaluated on day 35) was 140 % of control. For the same molecule, the T/C (dose: 200.0 mg/kg/injection, schedule: Q01DX001 (ip), vehicle: other, run until all animals had died) was 149 % of control [3 of 4 alive], the T/C (dose: 200.0 mg/kg/injection, schedule: Q01DX001 (ip), vehicle: saline) was 128 % of control and the T/C (dose: 200.0 mg/kg/injection, schedule: Q01DX001 (sc), vehicle: other) was 130 % of control. The T/C (dose: 200.0 mg/kg/injection, schedule: Q07DX002 (ip), vehicle: other) was 146 % of control, the survivor count (dose: 400.0 mg/kg/injection, schedule: Q01DX001 (ip), vehicle: other) was 3 of 4 and 6 of 6 and the T/C (dose: 400.0 mg/kg/injection, schedule: Q01DX001 (oral), vehicle: other) was 132 % of control. The survivor count (dose: 400.0 mg/kg/injection, schedule: Q01DX001 (sc), vehicle: other) was 6 of 6, the survivor count (dose: 400.0 mg/kg/injection, schedule: Q07DX002 (ip), vehicle: other) was 6 of 6 and the survivor count (dose: 500.0 mg/kg/injection, schedule: Q01DX001 (ip), vehicle: water) was 4 of 6. For the same molecule, the survivor count (dose: 500.0 mg/kg/injection, schedule: Q07DX002 (ip), vehicle: water) was 4 of 6.
